In the supplement of paper PMC10849652:
The list shows a part of the results.

Amino acid sequences for entries named in this document (tags omitted). A change or cut given only in a name is not applied to a line headed by its entry.
UniProt Q9Y6I9: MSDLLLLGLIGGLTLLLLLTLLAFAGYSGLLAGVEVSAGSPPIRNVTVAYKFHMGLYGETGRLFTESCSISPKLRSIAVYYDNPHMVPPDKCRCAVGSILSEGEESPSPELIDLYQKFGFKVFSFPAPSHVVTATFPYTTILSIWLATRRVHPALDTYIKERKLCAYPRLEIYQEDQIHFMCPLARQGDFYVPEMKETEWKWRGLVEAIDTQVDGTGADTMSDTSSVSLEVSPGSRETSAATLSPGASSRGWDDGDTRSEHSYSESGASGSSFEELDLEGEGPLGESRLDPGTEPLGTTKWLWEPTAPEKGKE
UniProt Q9Y5J7: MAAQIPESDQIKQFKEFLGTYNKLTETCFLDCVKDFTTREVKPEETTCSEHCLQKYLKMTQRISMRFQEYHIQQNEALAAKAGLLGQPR
UniProt P15923: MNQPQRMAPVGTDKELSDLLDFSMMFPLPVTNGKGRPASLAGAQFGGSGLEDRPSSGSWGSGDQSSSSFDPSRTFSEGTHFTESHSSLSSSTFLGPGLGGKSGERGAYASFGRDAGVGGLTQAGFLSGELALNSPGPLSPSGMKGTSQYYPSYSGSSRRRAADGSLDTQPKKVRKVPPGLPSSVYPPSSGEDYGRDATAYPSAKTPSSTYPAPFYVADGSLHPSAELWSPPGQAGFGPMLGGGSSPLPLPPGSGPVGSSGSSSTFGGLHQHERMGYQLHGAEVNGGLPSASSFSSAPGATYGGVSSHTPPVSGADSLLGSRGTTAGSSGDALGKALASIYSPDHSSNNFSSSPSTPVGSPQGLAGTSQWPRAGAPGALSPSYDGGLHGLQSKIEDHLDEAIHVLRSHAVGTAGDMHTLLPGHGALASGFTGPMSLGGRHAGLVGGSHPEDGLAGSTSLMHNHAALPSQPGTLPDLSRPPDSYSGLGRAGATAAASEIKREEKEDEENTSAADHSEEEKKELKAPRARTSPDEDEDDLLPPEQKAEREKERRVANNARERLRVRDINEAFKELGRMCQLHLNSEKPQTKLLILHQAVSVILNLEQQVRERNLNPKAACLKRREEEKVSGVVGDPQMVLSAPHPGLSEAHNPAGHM
UniProt Q9BZK7: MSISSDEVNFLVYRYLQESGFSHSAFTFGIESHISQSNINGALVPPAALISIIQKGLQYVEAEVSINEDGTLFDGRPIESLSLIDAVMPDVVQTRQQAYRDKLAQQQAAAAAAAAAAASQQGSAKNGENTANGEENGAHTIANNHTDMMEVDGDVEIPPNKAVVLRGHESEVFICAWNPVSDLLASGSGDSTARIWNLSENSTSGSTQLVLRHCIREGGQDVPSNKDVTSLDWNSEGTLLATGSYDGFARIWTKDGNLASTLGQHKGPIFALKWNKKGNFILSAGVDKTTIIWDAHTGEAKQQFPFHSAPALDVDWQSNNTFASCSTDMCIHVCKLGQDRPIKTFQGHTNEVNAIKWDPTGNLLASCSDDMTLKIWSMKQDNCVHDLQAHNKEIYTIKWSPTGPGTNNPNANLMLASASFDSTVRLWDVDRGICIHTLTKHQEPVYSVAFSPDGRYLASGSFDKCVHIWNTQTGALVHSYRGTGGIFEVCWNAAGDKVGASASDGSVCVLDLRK
UniProt Q3LXA3: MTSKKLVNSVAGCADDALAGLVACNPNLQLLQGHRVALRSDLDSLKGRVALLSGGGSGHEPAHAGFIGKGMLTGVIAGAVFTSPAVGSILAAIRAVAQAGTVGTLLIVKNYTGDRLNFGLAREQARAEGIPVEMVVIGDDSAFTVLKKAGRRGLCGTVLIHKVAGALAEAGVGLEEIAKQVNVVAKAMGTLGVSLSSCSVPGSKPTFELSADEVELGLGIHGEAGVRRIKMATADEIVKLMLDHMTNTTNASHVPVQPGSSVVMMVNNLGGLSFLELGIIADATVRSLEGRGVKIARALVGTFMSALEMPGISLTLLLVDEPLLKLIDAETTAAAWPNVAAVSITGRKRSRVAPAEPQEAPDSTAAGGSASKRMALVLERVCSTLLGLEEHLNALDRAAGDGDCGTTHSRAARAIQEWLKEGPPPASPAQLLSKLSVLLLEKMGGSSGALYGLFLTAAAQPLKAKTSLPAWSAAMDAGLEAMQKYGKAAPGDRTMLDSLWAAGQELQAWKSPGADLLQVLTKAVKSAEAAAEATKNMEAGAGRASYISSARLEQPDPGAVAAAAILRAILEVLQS
UniProt Q13428: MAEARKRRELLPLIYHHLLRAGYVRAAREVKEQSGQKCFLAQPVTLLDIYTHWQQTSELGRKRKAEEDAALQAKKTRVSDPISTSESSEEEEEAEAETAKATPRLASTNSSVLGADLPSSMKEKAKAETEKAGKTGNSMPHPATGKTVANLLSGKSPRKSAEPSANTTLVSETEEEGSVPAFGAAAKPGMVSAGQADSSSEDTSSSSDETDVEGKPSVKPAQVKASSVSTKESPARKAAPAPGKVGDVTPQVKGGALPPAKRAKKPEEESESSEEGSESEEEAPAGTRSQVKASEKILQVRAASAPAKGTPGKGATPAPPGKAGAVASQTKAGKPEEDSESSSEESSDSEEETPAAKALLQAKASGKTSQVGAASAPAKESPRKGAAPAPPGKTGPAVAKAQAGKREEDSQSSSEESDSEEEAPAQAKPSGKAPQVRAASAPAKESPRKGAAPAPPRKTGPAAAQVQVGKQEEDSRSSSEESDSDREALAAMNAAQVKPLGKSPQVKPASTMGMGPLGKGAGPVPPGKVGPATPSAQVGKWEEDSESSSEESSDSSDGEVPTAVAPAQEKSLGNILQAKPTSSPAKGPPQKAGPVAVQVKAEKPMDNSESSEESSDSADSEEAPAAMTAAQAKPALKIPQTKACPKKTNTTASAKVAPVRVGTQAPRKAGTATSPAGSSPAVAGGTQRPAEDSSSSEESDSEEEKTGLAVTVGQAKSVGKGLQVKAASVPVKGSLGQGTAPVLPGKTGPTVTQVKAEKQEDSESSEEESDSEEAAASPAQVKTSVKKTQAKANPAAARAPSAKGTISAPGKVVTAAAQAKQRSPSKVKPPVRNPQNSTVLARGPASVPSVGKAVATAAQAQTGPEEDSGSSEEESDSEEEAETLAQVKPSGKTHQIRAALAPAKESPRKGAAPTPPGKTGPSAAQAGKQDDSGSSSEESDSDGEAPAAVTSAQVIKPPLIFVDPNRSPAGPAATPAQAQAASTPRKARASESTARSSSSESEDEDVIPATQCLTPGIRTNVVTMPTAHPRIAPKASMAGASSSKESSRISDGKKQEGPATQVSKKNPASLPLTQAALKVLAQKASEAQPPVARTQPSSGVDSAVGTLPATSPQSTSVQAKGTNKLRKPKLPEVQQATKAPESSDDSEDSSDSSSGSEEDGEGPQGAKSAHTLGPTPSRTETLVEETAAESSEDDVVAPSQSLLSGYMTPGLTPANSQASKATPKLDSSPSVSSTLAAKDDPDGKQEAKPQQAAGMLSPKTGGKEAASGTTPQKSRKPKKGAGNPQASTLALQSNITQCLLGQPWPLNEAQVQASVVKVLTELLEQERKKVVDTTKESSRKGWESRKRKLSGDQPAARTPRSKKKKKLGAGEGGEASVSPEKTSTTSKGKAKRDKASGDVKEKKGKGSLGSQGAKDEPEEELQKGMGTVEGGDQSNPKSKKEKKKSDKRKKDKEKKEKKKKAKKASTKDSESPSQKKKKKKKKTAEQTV
UniProt O60220: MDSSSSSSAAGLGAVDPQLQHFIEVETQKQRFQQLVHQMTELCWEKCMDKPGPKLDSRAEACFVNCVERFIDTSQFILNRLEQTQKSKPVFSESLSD
UniProt Q99595: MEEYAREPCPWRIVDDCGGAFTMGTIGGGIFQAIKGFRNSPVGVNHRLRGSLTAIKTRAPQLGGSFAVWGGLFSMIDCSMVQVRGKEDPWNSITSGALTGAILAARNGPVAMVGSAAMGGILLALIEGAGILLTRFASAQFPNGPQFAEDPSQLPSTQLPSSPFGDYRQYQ
UniProt Q9Y4R8, whole entry, looked up: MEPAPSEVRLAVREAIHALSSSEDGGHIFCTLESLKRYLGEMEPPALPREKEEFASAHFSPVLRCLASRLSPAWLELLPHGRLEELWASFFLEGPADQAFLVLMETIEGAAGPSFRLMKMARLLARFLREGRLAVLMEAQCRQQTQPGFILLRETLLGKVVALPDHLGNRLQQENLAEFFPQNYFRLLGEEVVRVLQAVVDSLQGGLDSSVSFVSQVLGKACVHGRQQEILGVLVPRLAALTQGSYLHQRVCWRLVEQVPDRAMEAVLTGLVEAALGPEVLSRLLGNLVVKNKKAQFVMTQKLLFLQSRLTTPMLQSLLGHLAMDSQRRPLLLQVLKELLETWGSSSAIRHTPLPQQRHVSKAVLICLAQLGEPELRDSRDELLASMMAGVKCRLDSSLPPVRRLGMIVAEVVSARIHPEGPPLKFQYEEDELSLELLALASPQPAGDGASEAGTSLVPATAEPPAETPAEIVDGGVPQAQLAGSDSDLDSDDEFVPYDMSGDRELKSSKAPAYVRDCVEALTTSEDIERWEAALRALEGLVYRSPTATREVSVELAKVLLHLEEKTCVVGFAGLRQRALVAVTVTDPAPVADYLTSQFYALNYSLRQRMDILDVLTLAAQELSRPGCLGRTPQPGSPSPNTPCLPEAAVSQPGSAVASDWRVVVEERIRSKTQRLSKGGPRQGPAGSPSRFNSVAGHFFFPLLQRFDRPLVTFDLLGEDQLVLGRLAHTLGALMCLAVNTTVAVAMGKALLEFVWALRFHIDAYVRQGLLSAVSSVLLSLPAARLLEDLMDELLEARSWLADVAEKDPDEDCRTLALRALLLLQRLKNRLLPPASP
UniProt Q01085: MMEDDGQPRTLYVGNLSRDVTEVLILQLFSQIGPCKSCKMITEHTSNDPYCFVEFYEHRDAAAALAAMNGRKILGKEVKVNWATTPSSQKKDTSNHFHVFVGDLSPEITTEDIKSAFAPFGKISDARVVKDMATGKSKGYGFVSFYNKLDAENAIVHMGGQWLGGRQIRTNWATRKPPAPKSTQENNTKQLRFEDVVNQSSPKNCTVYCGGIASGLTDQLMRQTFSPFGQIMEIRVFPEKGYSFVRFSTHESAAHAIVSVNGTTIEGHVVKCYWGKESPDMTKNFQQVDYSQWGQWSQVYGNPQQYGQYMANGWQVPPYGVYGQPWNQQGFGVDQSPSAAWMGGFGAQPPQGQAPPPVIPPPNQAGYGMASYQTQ
UniProt O95551: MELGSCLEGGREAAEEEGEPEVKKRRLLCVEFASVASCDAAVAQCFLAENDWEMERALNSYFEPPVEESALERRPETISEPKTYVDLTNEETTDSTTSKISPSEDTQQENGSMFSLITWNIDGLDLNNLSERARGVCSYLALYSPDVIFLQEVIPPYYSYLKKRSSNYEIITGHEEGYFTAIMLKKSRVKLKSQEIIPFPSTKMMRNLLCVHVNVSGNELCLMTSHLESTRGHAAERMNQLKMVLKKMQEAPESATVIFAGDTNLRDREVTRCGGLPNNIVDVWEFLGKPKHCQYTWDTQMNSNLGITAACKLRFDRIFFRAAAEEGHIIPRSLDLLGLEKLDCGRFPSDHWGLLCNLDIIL
UniProt Q9Y584: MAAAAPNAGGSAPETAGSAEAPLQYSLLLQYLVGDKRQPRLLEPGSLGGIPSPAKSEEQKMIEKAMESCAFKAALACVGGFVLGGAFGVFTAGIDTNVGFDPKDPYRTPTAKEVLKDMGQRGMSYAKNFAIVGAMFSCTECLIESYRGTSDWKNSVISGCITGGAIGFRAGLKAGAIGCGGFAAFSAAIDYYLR
UniProt Q13769: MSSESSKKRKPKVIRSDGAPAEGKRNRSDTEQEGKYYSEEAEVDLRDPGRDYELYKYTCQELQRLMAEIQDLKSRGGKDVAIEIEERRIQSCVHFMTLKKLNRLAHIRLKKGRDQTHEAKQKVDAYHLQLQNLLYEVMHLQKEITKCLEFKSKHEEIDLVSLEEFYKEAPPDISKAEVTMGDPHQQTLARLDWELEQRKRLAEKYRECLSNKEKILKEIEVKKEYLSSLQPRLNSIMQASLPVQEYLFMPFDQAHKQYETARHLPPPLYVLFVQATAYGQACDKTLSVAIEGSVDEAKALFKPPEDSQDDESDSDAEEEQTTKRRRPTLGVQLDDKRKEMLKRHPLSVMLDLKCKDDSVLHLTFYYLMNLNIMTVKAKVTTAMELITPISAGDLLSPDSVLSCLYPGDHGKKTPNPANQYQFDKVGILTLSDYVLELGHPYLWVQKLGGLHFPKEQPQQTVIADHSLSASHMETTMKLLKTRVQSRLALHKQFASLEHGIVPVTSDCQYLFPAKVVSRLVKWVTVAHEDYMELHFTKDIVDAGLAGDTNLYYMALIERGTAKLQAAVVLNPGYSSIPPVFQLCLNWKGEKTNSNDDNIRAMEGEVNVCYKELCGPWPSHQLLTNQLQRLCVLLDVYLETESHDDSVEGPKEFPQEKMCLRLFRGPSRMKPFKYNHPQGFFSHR
UniProt Q96BS2: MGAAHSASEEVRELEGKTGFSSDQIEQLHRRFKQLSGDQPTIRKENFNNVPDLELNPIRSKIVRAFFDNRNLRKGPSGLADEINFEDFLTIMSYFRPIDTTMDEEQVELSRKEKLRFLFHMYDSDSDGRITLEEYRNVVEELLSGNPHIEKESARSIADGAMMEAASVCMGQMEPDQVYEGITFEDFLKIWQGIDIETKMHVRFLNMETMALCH

Each target was assayed with CO[C@H]1C[C@@H]2CC[C@@H](C)[C@@](O)(O2)C(=O)C(=O)N2CCCC[C@H]2C(=O)O[C@H]([C@H](C)C[C@@H]2CC[C@H](n3cnnn3)[C@H](OC)C2)CC(=O)[C@H](C)/C=C(\C)[C@@H](O)[C@@H](OC)C(=O)[C@H](C)C[C@H](C)/C=C/C=C/C=C/1C [zotarolimus] (assay: log2 fold change, soluble protein after heating vs DMSO (PISA); higher = thermal stabilisation; K562 cells, 10 uM, 30 min; active = over 0.2 and 3.5 SD of the protein, either way, in both replicates (recomputed)).
Method in brief: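 For each measurement, 10 μM compound was applied for 30 min to K562 cells at 2×10^6 cells/mL. Aliquots were heated for 3 min across 48°C-58°C, pooled, and extracted in PBS with 0.5% NP-40 at 4°C; the supernatant after 21,000xg for 90 min was soluble protein. This was quantified by TMTpro 16plex LC-MS/MS with channel sums equalised, and thermal stability was reported relative to control samples from duplicates, on a log2 fold-change scale.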

log2 fold change, inactive:
TEX264 (UniProt Q9Y6I9) 0.059, THOP1 (UniProt P52888) -0.017, TGFBRAP1 (UniProt Q8WUH2) -0.031, TIMM9 (UniProt Q9Y5J7) 0.014, TCF3 (UniProt P15923) -0.079, TIMM10 (UniProt P62072) -0.023, TFR2 (UniProt Q9UP52) -0.06, TBL1XR1 (UniProt Q9BZK7) 0.005, TBC1D9B (UniProt Q66K14) 0.042, TKFC (UniProt Q3LXA3) -0.048, TGFBR1 isoform 2 (UniProt P36897) -0.217, TCOF1 isoform 4 (UniProt Q13428) -0.011, TIMM8A (UniProt O60220) 0.103, THUMPD2 (UniProt Q9BTF0) -0.042, TFB2M (UniProt Q9H5Q4) -0.001, TIMM17A (UniProt Q99595) -0.008, TFRC (UniProt P02786) -0.041, THG1L (UniProt Q9NWX6) -0.022, TBCC (UniProt Q15814) 0.022, TES (UniProt Q9UGI8) 0.006, TELO2 (UniProt Q9Y4R8) 0.098, TBCA (UniProt O75347) -0.026, TBC1D4 (UniProt O60343) 0.033, TIAL1 isoform 2 (UniProt Q01085) -0.016, TLE3 isoform 4 (UniProt Q04726) -0.011, TGM2 (UniProt P21980) -0.021, TGFB1 (UniProt P01137) -0.008, TDP2 isoform 2 (UniProt O95551) 0, TECR (UniProt Q9NZ01) -0.041, TIMM22 (UniProt Q9Y584) 0.055, THBS4 (UniProt P35443) -0.375, TERF2 (UniProt Q15554) 0.113, TICAM2 isoform 2 (UniProt Q86XR7) 0.001, TIMM13 (UniProt Q9Y5L4) 0.042, TBL1X (UniProt O60907) 0.047, TF (UniProt P02787) -0.112, THOC5 (UniProt Q13769) 0.004, TBC1D15 isoform 3 (UniProt Q8TC07) 0.039, TESC (UniProt Q96BS2) 0.036, TCERG1 (UniProt O14776) 0.025
